Assay results published in PMC10649679.
These are yes or no findings as the source states them, for the method shown. Binding seen in cells or lysates may run through a third protein. Some results given as binding are weak or reduced against the parent protein; the word gives no strength. Where a sequence is shown, tags or fusion partners need not be part of it.

Chains of the proteins cited; added tags and fusions are not shown.
UniProt Q13596: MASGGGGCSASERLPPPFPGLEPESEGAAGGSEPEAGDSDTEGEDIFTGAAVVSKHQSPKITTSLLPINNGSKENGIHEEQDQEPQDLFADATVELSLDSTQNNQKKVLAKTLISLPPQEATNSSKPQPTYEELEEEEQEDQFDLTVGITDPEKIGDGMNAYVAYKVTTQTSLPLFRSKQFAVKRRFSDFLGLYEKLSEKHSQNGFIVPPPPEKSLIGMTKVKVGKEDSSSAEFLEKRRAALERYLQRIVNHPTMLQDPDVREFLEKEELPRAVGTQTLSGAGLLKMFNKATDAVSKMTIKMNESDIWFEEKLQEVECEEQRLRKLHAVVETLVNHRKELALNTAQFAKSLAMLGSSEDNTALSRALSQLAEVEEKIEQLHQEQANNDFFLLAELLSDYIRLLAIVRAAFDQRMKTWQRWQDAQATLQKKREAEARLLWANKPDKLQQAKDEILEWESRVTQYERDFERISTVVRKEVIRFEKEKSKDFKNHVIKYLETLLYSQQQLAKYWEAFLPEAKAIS

Target: T1, fusion protein of GFP with the cytoplasmic domain of cation-independent mannose 6-phosphate receptor (UniProt P11717)
T1 sequence: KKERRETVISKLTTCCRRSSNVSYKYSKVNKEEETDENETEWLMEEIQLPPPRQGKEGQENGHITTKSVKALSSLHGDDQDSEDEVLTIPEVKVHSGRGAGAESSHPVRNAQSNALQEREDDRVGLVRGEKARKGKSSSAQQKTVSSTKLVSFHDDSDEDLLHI
Test: co-IP; GFP-trap beads (Chromotek) on lysates of HEK293T cells transfected with the GFP fusion constructs; lysis in 50 mM Tris/HCl, 0.5% NP40, protease inhibitors, pH 7.4; 1 h at 4 °C; endogenous partners detected by Western blot (LI-COR Odyssey); enrichment given relative to GFP only

Substance: SNX1 (from UniProt Q13596 1-522)
- binding: binds
